In US9655891B1, “Use of isoquinoline derivatives for diabetic wound healing” (ZIH YUAN TANG Biotechnology Co., Ltd, priority 2016, dated 2017):
Some results were stated once for a whole list of compounds, not compound by compound.

Tested on: wounds of STZ induced diabetic rats
Test: Excisional full-thickness skin wound healing in STZ induced diabetic rats (recovery rate)
Format: in vivo, Wistar rats
Conditions: FIG. 3, DP and D+Salsolinol groups, once daily, Day 15
Experimental: Salsolinol ointments at 0.01 mg/g, 0.03 mg/g, 0.1 mg/g, and 0.3 mg/g were prepared respectively by dissolving 0.5 mg, 1.5 mg, 5 mg, and 15 mg of salsoinol in 2.5 mL of glycerol (Sigma Inc., MO, USA) plus 1.0 mL of Creagel emulsifier (First Chemical, TPE, Taiwan) and 45.5 mL of distilled water. Vehicle was composed of glycerol (2.5 mL), Creagel emulsifier (1.0 mL), and distilled water (45.5 mL).
Swivazin®-HN cream was used as positive control for treating the wounds of STZ induced diabetic rats, which contained asiaticoside (4 mg/g), isolated from Centella asiatica. […]. Ethnopharmacology 65 (1999): 1-11].
Adult male Wistar rats were used at four weeks of age, purchased from BioLASCO Taiwan, and were acclimatized in a room with 12-12 h light (7:00 A.M. to 7:00 P.M.)-dark (7:00 P.M. to 7:00 A.M.) cycle, a temperature of 23±1° C., and a humidity of 65±5%.
Each rat had free access to both water and standard rodent soft chow ad libitum. STZ was injected intraperitoneally at a dose of 65 mg/Kg body weight. […]
. The groups were administered at the same amount once daily and the wounds were photopictured on Day 1, Day 3, Day 5, Day 7, Day 10, and Day 15 and the sizes of the wounds were analyzed using Visual Basic 6.0. Wound closure at experimental time points was calculated as percentage of initial wound area, called as “recovery rate.”

## CC1NCCc2cc(O)c(O)cc21 (stereo not shown) [salsolinol]
  recovery rate (wound closure as percentage of initial wound area): over 97%
